These results are taken from patent US20190209565A1.

Amino acid sequences for entries named in this document (tags omitted).
UniProt Q14457: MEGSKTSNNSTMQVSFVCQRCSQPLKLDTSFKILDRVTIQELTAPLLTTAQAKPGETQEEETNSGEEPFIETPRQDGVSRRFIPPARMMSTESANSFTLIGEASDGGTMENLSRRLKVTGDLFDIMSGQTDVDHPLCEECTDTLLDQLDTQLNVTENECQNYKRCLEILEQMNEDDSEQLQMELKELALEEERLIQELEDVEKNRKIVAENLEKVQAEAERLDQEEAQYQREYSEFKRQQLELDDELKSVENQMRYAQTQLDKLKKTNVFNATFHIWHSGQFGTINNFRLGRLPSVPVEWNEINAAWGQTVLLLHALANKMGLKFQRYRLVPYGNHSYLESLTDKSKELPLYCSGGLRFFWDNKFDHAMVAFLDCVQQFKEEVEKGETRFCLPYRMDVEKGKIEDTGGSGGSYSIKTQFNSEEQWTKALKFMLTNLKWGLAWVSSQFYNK

The target of test [1] is Beclin-1 (endogenous in HEK293 cells) (human) (UniProt Q14457). The test is described as follows: co-immunoprecipitation with anti-Beclin-1 from HEK293 lysates, Western blot (FIG. 4B). On the technique in general: In western blotting, separated proteins are transferred to a membrane and probed.
For test [2] the target is unchanged. The test is described as follows: co-immunoprecipitation, Western blot (FIG. 4 legend).
Another test deals with FLAG-Beclin-1 (human) (UniProt Q14457). The experiment in a line: anti-GFP immunoprecipitation from HEK293 cells expressing FLAG-Beclin-1 and YFP-tagged ErbB2, Western blot (FIG. 4E).

No constants are given. Whether binding was seen depends on the method and setting. For part of these data: Binding seen in cells or lysates may run through a third protein. Some results given as binding are weak or reduced against the parent protein; the word gives no strength.

As to “ErbB2 (endogenous in HEK293 cells) (from UniProt P04626 23-1255) (receptor)”, the binding result in test [1] and in test [2] was “binds” throughout.
“YFP-tagged ErbB2 (from UniProt P04626 31-1255) (receptor)”: the binding entry with FLAG-Beclin-1 (human) is listed as “binds”.
